Laboratory results taken from patent publication US20110118207A1, “MODIFIED HYDROXYPOLYMER CONJUGATES WITH BONE SEEKING AND TUMOR KILLING MOIETIES” (DEXTECH MEDICAL AB, priority 2008, published 2011).
For at least one compound, name, drawing or mass did not settle the structure.

Key:
PC3 (prostate cancer) = test: Fluorometric cytotoxicity assay, PC3; format: cell-based; conditions: concentration 25 μM, 72 h incubation, FIG. 1
MDA453 (breast cancer) = test: Fluorometric cytotoxicity assay, MDA453; format: cell-based; conditions: concentration 7 μM, 72 h incubation, FIG. 2

## O=P(O)(O)C(O)(Cn1ccnc1)P(=O)(O)O [Zoledronic acid]
PC3 (prostate cancer)
  killing of prostate cancer cells: killed only half
MDA453 (breast cancer)
  killing of breast cancer cells: almost no effect
